Data from the supplement of paper PMC11732987, “Enantioselective OTUD7B fragment discovery through chemoproteomics screening and high-throughput optimisation” (Communications Chemistry, 2025).
This is one part of the list. The data scatter; read single values as rough.

Amino acid sequences for entries named in this document (tags omitted). A change or cut given only in a name is not applied to a line headed by its entry. Residues count along the entry.
UniProt Q9BPX6: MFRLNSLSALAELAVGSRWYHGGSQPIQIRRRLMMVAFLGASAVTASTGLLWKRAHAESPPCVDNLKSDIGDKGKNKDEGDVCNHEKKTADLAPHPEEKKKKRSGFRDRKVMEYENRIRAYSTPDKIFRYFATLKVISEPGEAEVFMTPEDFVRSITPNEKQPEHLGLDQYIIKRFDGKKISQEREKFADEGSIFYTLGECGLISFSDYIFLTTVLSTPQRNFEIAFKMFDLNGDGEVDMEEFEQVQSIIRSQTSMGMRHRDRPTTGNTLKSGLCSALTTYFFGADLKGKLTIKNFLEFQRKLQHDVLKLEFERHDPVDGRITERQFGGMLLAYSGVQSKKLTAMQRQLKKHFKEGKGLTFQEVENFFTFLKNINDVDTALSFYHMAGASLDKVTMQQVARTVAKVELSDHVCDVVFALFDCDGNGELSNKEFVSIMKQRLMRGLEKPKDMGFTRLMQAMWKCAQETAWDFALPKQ
UniProt Q86XN8, 176-197: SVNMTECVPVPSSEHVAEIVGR
UniProt Q7L2J0: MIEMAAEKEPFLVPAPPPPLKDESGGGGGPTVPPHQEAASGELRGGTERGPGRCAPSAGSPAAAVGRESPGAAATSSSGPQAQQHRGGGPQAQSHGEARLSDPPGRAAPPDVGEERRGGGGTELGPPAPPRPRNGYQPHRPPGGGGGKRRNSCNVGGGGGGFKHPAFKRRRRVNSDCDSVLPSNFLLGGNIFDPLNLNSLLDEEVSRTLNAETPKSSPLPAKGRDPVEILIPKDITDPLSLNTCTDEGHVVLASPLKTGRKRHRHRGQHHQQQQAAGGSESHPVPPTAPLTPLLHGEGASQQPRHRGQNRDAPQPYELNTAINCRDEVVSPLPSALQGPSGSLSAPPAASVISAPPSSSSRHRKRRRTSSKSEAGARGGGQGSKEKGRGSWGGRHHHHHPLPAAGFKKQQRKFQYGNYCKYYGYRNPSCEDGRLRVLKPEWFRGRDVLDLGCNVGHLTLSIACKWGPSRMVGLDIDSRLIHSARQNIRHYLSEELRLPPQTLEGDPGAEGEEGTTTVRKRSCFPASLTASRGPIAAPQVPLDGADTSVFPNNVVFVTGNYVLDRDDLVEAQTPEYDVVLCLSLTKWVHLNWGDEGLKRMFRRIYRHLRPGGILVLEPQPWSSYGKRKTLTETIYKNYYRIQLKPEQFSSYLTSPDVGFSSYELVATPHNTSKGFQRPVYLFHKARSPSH
UniProt O95297: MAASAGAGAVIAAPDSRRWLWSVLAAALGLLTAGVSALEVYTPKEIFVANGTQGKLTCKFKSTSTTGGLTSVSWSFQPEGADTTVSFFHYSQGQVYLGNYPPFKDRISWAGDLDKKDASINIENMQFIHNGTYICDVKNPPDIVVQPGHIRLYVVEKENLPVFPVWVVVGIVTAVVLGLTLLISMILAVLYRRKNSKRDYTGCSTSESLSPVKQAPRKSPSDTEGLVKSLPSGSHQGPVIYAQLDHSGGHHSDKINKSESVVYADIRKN
UniProt Q9BVC4, whole entry, looked up: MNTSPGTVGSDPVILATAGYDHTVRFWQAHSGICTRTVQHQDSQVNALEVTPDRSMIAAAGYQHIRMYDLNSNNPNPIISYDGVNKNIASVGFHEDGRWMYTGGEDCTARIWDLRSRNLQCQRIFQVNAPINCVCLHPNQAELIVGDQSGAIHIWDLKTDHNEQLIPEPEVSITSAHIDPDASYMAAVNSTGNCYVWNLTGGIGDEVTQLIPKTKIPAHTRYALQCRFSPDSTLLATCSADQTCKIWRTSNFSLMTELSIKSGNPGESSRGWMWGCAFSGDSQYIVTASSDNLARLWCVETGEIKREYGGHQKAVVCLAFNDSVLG
UniProt P21741: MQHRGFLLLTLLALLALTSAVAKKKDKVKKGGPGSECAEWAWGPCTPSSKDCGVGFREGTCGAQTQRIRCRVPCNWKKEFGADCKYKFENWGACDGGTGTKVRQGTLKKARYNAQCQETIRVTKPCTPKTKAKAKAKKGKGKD
UniProt Q9H1A3: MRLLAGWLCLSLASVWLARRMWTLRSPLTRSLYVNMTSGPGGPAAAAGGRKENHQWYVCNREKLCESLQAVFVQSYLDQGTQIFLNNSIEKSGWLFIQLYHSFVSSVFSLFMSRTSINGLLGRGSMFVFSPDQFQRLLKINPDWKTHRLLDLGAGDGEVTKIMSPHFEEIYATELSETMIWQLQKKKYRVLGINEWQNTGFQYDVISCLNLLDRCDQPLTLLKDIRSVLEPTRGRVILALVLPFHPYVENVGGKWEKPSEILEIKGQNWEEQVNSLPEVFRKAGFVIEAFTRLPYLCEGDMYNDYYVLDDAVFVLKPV
UniProt P40926: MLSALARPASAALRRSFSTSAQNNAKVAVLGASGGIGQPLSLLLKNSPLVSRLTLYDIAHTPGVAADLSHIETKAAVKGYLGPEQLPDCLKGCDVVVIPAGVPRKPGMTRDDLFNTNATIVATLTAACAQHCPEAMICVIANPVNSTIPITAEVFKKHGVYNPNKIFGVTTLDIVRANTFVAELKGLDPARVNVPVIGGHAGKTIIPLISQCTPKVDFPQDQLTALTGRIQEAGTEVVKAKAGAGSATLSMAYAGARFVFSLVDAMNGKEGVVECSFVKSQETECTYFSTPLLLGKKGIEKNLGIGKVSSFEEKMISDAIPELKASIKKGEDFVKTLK
UniProt Q86W50: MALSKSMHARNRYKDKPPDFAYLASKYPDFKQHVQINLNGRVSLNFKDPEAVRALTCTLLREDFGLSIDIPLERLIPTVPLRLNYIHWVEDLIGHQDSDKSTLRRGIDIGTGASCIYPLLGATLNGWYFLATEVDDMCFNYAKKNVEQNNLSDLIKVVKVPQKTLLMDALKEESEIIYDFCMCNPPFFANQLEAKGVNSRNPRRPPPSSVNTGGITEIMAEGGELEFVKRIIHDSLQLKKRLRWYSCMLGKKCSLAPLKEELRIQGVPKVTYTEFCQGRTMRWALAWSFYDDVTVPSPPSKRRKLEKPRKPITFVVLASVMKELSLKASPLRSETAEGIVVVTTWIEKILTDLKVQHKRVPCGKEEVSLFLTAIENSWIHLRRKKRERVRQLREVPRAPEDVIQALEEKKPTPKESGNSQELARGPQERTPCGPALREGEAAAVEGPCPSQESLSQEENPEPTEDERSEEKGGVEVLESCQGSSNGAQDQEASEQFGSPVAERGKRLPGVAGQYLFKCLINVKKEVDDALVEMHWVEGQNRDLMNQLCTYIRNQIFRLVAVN

compound: ClCC(=O)N[C@H]1CCCc2ccccc12; test: log2 mean competition ratio of IA-DTB cysteine labelling (DMSO/compound) (log2 ratio); higher = stronger cysteine engagement by compound; conditions: 200 µM; treatment time: 4 h; cell line lysate: HEK293T
Method: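 IA-DTB competitive cysteine chemoproteomics in HEK293T RIPA lysate. Lysates were treated with compound 29 or 30 at 50 or 200 µM for 4 h, then IA-DTB (500 µM, 1 h), trypsin-digested, NeutrAvidin-enriched and analysed by diaPASEF. Competition ratio = intensity DMSO / intensity compound (n=4 treated, n=64 DMSO); binding: mean log2 CR ≥ 1 and p ≤ 0.05 plus QC filters. Target is the cysteine site.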

Target | log2 mean competition ratio
MDN1 C4517 (UniProt Q9NU22) | -0.144
MICU1 C83 (UniProt Q9BPX6) | 0.146
MEX3D C182 (UniProt Q86XN8) | -0.0903
MEPCE C153 (UniProt Q7L2J0) | -0.204
MPZL1 C203 (UniProt O95297) | -0.0846
MIEF2 C367 | -0.0757
MLST8 C298 (UniProt Q9BVC4) | 0.0552
MDK C116 (UniProt P21741) | 0.354
METTL9 C59 (UniProt Q9H1A3) | 0.124
MFSD3 C346 | -0.0708
MLST8 C107 (UniProt Q9BVC4) | -0.0943
MDH2 C93 (UniProt P40926) | 0.436
METTL16 C276 (UniProt Q86W50) | -0.218
